In paper PMC10224957:
These are yes or no findings as the source states them, for the method shown. For some assays here: Binding seen in cells or lysates may run through a third protein. Some results given as binding are weak or reduced against the parent protein; the word gives no strength.

Columns and labels:
[1] = target: T1, Juxtaposed with another zinc finger protein 1 (JAZF1) (human (endogenous in immortalized HESCs)) (UniProt Q86VZ6); assay: co-IP; IP with anti-JAZF1 (Santa Cruz, sc-376503X) or normal mouse IgG and protein A + G magnetic beads from decidualized immortalized HESCs; washed three times in lysis buffer; immunoblot
T1 sequence: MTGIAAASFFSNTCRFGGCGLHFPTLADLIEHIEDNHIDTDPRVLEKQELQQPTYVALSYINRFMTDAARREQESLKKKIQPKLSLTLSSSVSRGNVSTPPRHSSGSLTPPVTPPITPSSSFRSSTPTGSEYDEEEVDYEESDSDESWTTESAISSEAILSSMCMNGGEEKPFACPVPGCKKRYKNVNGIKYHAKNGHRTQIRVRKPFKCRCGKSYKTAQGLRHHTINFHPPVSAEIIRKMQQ

[2] = target: T2, Purβ on the HuProt microarray (human) (UniProt Q96QR8); assay: peptide or protein array; HuProt 20K microarray of GST-tagged human full-length proteins, blocked with BSA in PBS; biotin-labeled JAZF1 protein (3 µg in 3 ml blocking solution) incubated at RT for 1 hr; streptavidin-Cy5; both purified
T2 sequence: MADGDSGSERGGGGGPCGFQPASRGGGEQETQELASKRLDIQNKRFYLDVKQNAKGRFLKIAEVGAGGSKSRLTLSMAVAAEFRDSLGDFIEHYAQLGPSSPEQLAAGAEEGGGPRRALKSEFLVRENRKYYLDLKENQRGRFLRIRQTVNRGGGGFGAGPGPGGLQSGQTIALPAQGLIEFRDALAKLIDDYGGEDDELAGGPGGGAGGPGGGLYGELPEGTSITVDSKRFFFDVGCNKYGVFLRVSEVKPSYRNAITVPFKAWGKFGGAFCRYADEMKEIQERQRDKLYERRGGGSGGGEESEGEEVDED

B1: Purβ (protein, UniProt Q96QR8 1-312)
chain: MADGDSGSERGGGGGPCGFQPASRGGGEQETQELASKRLDIQNKRFYLDVKQNAKGRFLKIAEVGAGGSKSRLTLSMAVAAEFRDSLGDFIEHYAQLGPSSPEQLAAGAEEGGGPRRALKSEFLVRENRKYYLDLKENQRGRFLRIRQTVNRGGGGFGAGPGPGGLQSGQTIALPAQGLIEFRDALAKLIDDYGGEDDELAGGPGGGAGGPGGGLYGELPEGTSITVDSKRFFFDVGCNKYGVFLRVSEVKPSYRNAITVPFKAWGKFGGAFCRYADEMKEIQERQRDKLYERRGGGSGGGEESEGEEVDED
binding [1]: binds

B2: JAZF1 protein, labeled with biotin (protein, UniProt Q86VZ6 1-243)
chain: MTGIAAASFFSNTCRFGGCGLHFPTLADLIEHIEDNHIDTDPRVLEKQELQQPTYVALSYINRFMTDAARREQESLKKKIQPKLSLTLSSSVSRGNVSTPPRHSSGSLTPPVTPPITPSSSFRSSTPTGSEYDEEEVDYEESDSDESWTTESAISSEAILSSMCMNGGEEKPFACPVPGCKKRYKNVNGIKYHAKNGHRTQIRVRKPFKCRCGKSYKTAQGLRHHTINFHPPVSAEIIRKMQQ
modifications: biotin
binding [2]: binds
